Measurements reported in PubChem BioAssay AID743454 (Peter MacCallum Cancer Centre, 2014).
The whole screen tested about 18,000 reagents; this is an unselected part. Over the whole deposit, 450 (2.5%) were called active. 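Single biological run; no consistent viability z cut-off exists, so the class columns, not z-scores, define the calls.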

Purpose: 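Genes whose loss kills vorinostat-resistant colon cancer cells under vorinostat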 (primary screen)
Cells: human HCT116-VR colon cancer cells, selected for vorinostat resistance
Reagent: siRNA pool against human genes, 40 nM siRNA pool
Duration: vorinostat for 24 h, read-out about 72 h after transfection
Treatment: vorinostat at 2.5 µM final
Measurement: 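Two measures, CellTiter-Fluor viability and luminescent caspase 3/7 activity, each as fold change against same-plate mock wells, mean of duplicates, then screen-wide robust z-score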
Direction: viability robust z-score: higher = more viable cells than screen typical; caspase robust z-score: higher = more caspase 3/7 activity than screen typical
Hit rule: 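a knock-down is a hit when classed RV1 or RV2 for lowered viability, or CA1 or CA2 for caspase activation; those lethal without drug were dropped; hits were retested singly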

The opening 2 entries, ahead of the listing:
Target gene	viability hit class	caspase hit class	viability robust z-score	caspase robust z-score	Outcome
INSR	no change	no change	-0.34	-0.24	inactive
TSSK2	no change	no change	-0.24	0.46	inactive

Main list, repeating the preview:
Target gene	viability hit class	caspase hit class	viability robust z-score	caspase robust z-score	Outcome
INSR	no change	no change	-0.34	-0.24	inactive
TSSK2	no change	no change	-0.24	0.46	inactive
RACK1	no change	no change	-1.75	-0.8	inactive
ZNF574	no change	no change	-0.56	1.54	inactive
HPGDS	no change	no change	0.91	-0.29	inactive
OC90	no change	no change	-0.48	-0.3	inactive
IGSF5	no change	no change	0.77	-0.82	inactive
CIAO1	no change	no change	0.44	-0.36	inactive
HNRNPM	no change	no change	-1.56	2.53	inactive
ZNF80	no change	no change	0.2	-0.16	inactive
SELP	no change	no change	-0.84	0.55	inactive
CAMKMT	no change	no change	0.18	-0.82	inactive
WDR70	no change	no change	-0.26	0.8	inactive
CPPED1	no change	no change	-0.06	-0.84	inactive
LCN2	no change	no change	0.59	2.37	inactive
ALK	no change	no change	-1.7	2.73	inactive
CTDP1	no change	no change	0.09	0.3	inactive
AKR1E2	no change	no change	-0.16	-0.74	inactive
ZNF485	no change	no change	0.38	-0.34	inactive
KCNMA1	no change	no change	-0.55	-0.93	inactive
E4F1	no change	no change	-0.2	0.42	inactive
DENND6A	no change	no change	0.1	1.56	inactive
RNASEK	no change	no change	0.13	-1.02	inactive
